Experiment in all cases: affinity purification with mass spectrometry; FLAG-tagged bait (f.ArgD or f.Gun4) isolated from the soluble (cytosolic) fraction of Synechocystis on anti-FLAG M2 affinity gel in buffer A (20 mM HEPES pH 7.4, 5 mM CaCl2, 10 mM MgCl2, 25% glycerol), eluted with 3xFLAG peptide; eluate separated by 2D BN/SDS-PAGE or SDS-PAGE, stained spots or bands identified by MS; WT control
For assay [1], the target named is T1, 3×FLAG-tagged ArgD (N-acetylornithine aminotransferase) of Synechocystis sp. PCC 6803 (Synechocystis sp. PCC 6803) (UniProt P73133).
T1 sequence: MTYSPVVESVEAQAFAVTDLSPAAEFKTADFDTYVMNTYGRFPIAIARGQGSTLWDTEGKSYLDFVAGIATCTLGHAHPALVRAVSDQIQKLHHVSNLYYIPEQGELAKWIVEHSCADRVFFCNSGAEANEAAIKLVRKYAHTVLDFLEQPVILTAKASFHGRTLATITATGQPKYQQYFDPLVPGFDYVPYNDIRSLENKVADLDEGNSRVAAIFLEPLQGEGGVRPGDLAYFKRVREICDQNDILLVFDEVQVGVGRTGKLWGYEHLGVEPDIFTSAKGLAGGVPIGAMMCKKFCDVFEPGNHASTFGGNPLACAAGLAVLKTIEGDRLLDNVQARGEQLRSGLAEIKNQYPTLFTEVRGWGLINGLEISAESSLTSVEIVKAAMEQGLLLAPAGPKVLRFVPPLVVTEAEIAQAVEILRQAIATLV

The target of assay [2] is 3×FLAG-tagged Gun4 of Synechocystis sp. PCC 6803 (Synechocystis sp. PCC 6803).
For assay [3], the target named is T1, 3×FLAG-tagged ArgD (N-acetylornithine aminotransferase) of Synechocystis sp. PCC 6803 (Synechocystis sp. PCC 6803). This is another data set of the same source.

Consider seven molecules from paper PMC10783636, “Chlorophyll biosynthesis under the control of arginine metabolism” (Cell Reports, 2023).

Read-outs that look alike come from different tables or passages of the source. Results are given in words; binding and its absence hold for the method and conditions named. In cells and extracts the contact can be indirect. A yes stands for co-enrichment or nearness to the bait. Other partners may have been found. No binding means not detected with the bait. For part of these data: Sequences can lack the tags named with a protein.

As for “Gun4 protein of Synechocystis sp. PCC 6803 (native)”, the binding result in assay [1] is recorded as “binds”. Still for that read-out and setting: the same measure for “fructose-1,6-biphosphatase of Synechocystis sp. PCC 6803 (enzyme)”: “no binding”; for “Tryptophanyl t-RNA synthetase of Synechocystis sp. PCC 6803 (enzyme)”: “no binding”.

B1: ChlH subunit of magnesium chelatase of Synechocystis sp. PCC 6803 (protein, UniProt P73020 1-1331)
chain: MFTNVKSTIRRVDPEALNGRQLLKVVYVVLESQYQSALSAAVRNINRTNSSLAIQLTGYLIEELRDPENYANFKHDVSEANLFIASLIFIEDLADKVVEAVTPYRDNLDAAIVFPSMPQVMRLNKMGSFSMAQLGQSKSAIAQFMKKRKENSSGAGFQDAMLKLLRTLPTVLKYLPVEKAQDARNFMLSFQYWLGGSQENLENFLLMLTDKYVYPDLGLDKLVNYQEPVVYPDMGIWHPLSMQMFENVKDYLEWYNQRPDISEDLKDPLAPCIGLIMQRTHLVTGDDAHYVGMVQELEAMGARVICVFSGGLDFSKPVNEYFWDKSVNGVEPLPIVDAVVSLTGFALVGGPARQDHPRAIESLKKLNRPYMCALPLVFQTTEEWEASDLGLHPIQVALQIAIPELDGAIEPIILSGRDGSTGRAIALQDRLEAIAQRAMKWANLRKKPKLDKKVAITVFSFPPDKGNVGTAAYLDVFGSIYEVMKGLQGNGYDVQDLPGSAKELMEAVIHDAQAQYNSPELNIAHRMSVEQYERLTPYSVRLEENWGKPPGHLNSDGQNLLIYGKEFGNVFIGVQPTFGYEGDPMRLLFSRSASPHHGFAAYYTYLNHIWKADAVLHFGTHGSLEFMPGKQMGMSGECYPDNLIGTIPNLYYYAANNPSEATIAKRRGYASTISYLTPPAENAGLYKGLQELNELIGSYQTLKDSGRGIQIVNTIMDQARICNLDQDVNLPDINAEEMDQGQRDTIVGSVYRKLMEIESRLLPCGLHVIGQPPSAEEAIATLVNIASLDREDEGIWALPTLIAESIGRNMEEIYRNSDKGILADVELLQDITLATRAAVAALVQEQINADGRVSFVSKLNFFKIGKKAPWVKSLCDSGYPNVNEEKLKPLFEYLEFCLEQVCADNEFGGLLQALEGEYVLPGPGGDPIRNPNVLPTGKNIHALDPQSIPTLAAVQSAKVVVDRLLERQRAENGGNYPETIASVLWGTDNIKTYGESLAQIMWMVGAKPVPDALGRVNKIELVPLEELGRPRIDVVVNCSGVFRDLFINQMNLLDQAVKLAAEADEPLEMNFVRKHALEQAEEMGIGVREAATRIFSNASGSYSSNVNLAVENSSWEDESELQEMYLKRKSFAFNSDNPGMMDQNRDMFERALKTADATFQNLDSSEISLTDVSHYFDSDPTKLISTLRDDGKAPAAYIADTTTANAQVRTLSETVRLDARTKLLNPKWYEGMLSHGYEGVRELSKRLVNTMGWSATAGAVDNWVYEDANSTFIKDEEMCKRLMDLNPNSFRRMVSTLLEVNGRGYWETSDENLERLQELYQEVEDRIEGVE
With B1, the binding result in assay [2] and in assay [3] was “no binding” in each case.

B2: Pyruvate kinase 1 of Synechocystis sp. PCC 6803 (enzyme, UniProt Q55863 1-483)
chain: MPALINPVKFMRPLSHRTKIVATIGPASSSVEVIRQMVDAGMNVARLNFSHGSYEDHATMVRLLRSVEQEMDTPITLLQDLQGPKIRIGQLPGGEKQLREGEKVSLVPVEIGDRHPGAVGIDYPHLATEAKVGERILLDDGLLEMKVVSIQDPEVICEVVTGGILKSRKGVNLPGLVLTLPSMTTKDKQDLEFGLSQGIDWVSLSFVRKGEDIHTLKQFLAERGHPDLPVIAKIEKPQAIDNLEEIVAVSNGIMVARGDLGVEVNPEKVPRLQKEIIRRCNVRAIPVITATQMLDSMIQNSRPTRAEASDVANAILDGTDAVMLSGESAVGQYPVKSVQMLRKIAEETEVGLHLVNNPPIENTETHALSEALVVIDGILDLKYIVTFTTSGFTSLLASNQRPSVPVIAFTPSEKVYHSLNLVWGIIPFLINEEFDTFEDLIQQAEVLLRDRKMVEKGDQLLIMAGIPTKIPRGTNFLKIHRIS
With B2, the binding result in assay [2] was “binds”.

B3: cyanophycinase CphB of Synechocystis sp. PCC 6803 (native) (enzyme, UniProt P73832 1-271, looked up)
chain: MPLSSQPAILIIGGAEDKVHGREILQTFWSRSGGNDAIIGIIPSASREPLLIGERYQTIFSDMGVKELKVLDIRDRAQGDDSGYRLFVEQCTGIFMTGGDQLRLCGLLADTPLMDRIRQRVHNGEISLAGTSAGAAVMGHHMIAGGSSGEWPNRALVDMAVGLGIVPEIVVDQHFHNRNRMARLLSAISTHPELLGLGIDEDTCAMFERDGSVKVIGQGTVSFVDARDMSYTNAALVGANAPLSLHNLRLNILVHGEVYHQVKQRAFPRVT
notes: cyanophycinase CphB, Synechocystis sp; PCC 6803, gene slr2001; printed as 29.4 kDa; Migrated like a large oligomer (>200 kDa) on the BN gel; source: endogenous, Synechocystis soluble fraction
Regarding B3, the binding entry in assay [2] and in assay [3] was “binds” in each case.

B4: 3×FLAG-tagged ArgD (N-acetylornithine aminotransferase) of Synechocystis sp. PCC 6803 (enzyme, UniProt P73133 1-429, looked up)
chain: MTYSPVVESVEAQAFAVTDLSPAAEFKTADFDTYVMNTYGRFPIAIARGQGSTLWDTEGKSYLDFVAGIATCTLGHAHPALVRAVSDQIQKLHHVSNLYYIPEQGELAKWIVEHSCADRVFFCNSGAEANEAAIKLVRKYAHTVLDFLEQPVILTAKASFHGRTLATITATGQPKYQQYFDPLVPGFDYVPYNDIRSLENKVADLDEGNSRVAAIFLEPLQGEGGVRPGDLAYFKRVREICDQNDILLVFDEVQVGVGRTGKLWGYEHLGVEPDIFTSAKGLAGGVPIGAMMCKKFCDVFEPGNHASTFGGNPLACAAGLAVLKTIEGDRLLDNVQARGEQLRSGLAEIKNQYPTLFTEVRGWGLINGLEISAESSLTSVEIVKAAMEQGLLLAPAGPKVLRFVPPLVVTEAEIAQAVEILRQAIATLV
notes: N-acetylornithine aminotransferase ArgD, Synechocystis sp; PCC 6803, gene slr1022; synthetic argD gene with optimised codon usage cloned into pPD-NFLAG; f.ArgD printed as 49.8 kDa; also called f.ArgD; source: Synechocystis f.argD+/ΔargD or f.argD+/ΔcphB strain (psbAII promoter), soluble fraction; not shown: 3xFLAG, N-terminal, kept
In the case of B4, in assay [2], the binding result is recorded as “binds”.
